These are yes or no findings as the source states them, for the method shown. In cells and extracts the contact can be indirect. Binding can be weak; no strength is given.
Molecular target: HA-tagged Kluyveromyces lactis Doa10 N-terminal fragment (HA-Nt-KlDoa10) (Kluyveromyces lactis) (UniProt Q6CIC6)
Test: co-IP; HA-Nt-KlDoa10 and Ct-KlDoa10-13MYC expressed alone or together from separate plasmids in K. lactis doa10Δ cells; membrane fraction solubilized in 1% digitonin; precipitated with anti-HA agarose beads; immunoblot with anti-MYC or anti-HA

13MYC-tagged Kluyveromyces lactis Doa10 C-terminal fragment (Ct-KlDoa10-13MYC) (from UniProt Q6CIC7)
binding: binds

From article PMC3464245
